{
  "sequences": {"note": "Chains of the proteins cited; added tags and fusions are not shown. Residues count along the entry.", "UniProt Q8TEQ6": "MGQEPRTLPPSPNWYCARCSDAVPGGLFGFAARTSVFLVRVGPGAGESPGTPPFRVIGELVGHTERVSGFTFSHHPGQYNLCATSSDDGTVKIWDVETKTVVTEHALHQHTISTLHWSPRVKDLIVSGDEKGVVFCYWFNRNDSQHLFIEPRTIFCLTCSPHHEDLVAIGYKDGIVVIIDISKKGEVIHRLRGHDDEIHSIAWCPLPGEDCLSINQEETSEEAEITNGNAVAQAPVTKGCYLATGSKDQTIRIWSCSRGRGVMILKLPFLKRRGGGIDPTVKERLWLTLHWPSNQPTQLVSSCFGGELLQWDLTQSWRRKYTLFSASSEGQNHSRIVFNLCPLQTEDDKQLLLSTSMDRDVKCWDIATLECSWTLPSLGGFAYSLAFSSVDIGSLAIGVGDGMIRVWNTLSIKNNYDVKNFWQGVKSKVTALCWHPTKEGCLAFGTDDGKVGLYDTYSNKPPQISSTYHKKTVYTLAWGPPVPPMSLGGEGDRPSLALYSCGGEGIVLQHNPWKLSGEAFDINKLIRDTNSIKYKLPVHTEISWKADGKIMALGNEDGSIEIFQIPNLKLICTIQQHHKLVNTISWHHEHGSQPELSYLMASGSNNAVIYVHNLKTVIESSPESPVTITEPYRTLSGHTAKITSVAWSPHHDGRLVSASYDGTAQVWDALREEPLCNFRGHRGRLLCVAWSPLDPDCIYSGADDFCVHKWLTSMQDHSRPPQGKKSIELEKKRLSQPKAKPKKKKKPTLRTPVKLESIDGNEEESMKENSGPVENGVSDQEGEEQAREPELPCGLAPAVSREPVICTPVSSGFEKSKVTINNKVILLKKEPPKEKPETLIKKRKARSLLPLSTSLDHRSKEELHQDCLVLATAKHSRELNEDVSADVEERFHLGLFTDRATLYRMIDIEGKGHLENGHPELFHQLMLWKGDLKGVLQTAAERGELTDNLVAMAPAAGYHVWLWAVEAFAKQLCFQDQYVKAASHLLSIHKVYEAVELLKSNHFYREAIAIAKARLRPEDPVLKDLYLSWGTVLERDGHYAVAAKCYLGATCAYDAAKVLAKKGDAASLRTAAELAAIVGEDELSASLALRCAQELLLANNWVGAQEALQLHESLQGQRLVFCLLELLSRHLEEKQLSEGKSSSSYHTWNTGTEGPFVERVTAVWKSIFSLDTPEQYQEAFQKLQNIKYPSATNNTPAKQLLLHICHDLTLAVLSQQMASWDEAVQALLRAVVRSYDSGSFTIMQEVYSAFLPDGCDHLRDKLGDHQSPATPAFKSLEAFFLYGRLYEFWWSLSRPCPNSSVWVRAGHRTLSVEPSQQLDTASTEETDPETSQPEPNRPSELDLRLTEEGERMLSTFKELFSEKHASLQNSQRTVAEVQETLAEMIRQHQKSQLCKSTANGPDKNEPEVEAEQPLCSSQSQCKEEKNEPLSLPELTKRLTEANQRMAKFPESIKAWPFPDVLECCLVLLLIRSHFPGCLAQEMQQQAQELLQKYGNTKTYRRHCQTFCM", "UniProt P03316, residues 1-264": "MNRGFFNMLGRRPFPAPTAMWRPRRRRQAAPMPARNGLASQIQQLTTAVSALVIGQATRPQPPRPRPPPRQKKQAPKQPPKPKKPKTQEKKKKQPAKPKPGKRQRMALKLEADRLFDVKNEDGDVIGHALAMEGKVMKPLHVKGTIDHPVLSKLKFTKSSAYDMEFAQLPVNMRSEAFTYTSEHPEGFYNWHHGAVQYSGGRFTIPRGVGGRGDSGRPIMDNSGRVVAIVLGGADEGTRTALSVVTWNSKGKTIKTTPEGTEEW"},
  "source": "paper PMC6458987",
  "target": "GEMIN5-eGFP (human) (UniProt Q8TEQ6)",
  "experiment": "affinity purification with mass spectrometry",
  "note": "These are yes or no findings as the source states them, for the method shown. Binding seen in cells or lysates may run through a third protein. These calls come from enrichment with a bait or labelling near it, and not all partners need be listed.",
  "data": [
    {"substance": "SINV capsid (from UniProt P03316)", "values": [
      {"measurement": "binding", "value": "binds"}
    ]}
  ]
}
